Test results: patent publication US20080096227A1
No constants are given. Whether binding was seen depends on the method and setting. In cells and extracts the contact can be indirect. Some results given as binding are weak or reduced against the parent protein; the word gives no strength.

Chains of the proteins cited; added tags and fusions are not shown. Lines headed by an entry give the natural chain unless they say otherwise; changes in a name come on top.
UniProt Q96D31: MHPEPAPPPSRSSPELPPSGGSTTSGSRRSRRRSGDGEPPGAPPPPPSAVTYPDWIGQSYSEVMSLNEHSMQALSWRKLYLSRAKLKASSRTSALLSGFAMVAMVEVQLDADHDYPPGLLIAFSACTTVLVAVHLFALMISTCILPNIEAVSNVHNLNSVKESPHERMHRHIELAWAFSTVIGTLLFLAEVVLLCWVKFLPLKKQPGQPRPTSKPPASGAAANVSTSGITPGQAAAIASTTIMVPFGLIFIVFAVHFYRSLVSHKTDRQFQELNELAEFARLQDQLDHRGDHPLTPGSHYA

Tests used:
[1] = target: Flag-E106Q-CRACM1 (human) (UniProt Q96D31); experiment: co-immunoprecipitation, immunoblot
Flag-CRACM1 (human) [2] = target: Flag-CRACM1 (human) (UniProt Q96D31); experiment: reverse co-immunoprecipitation from co-transfected HEK293 cells, immunoblot
Flag-CRACM1 (human) [3] = target: Flag-CRACM1 (human) (UniProt Q96D31); experiment: co-immunoprecipitation, immunoblot
CRACM1-Myc-His (human) [4] = target: CRACM1-Myc-His (human) (UniProt Q96D31); experiment: co-immunoprecipitation from co-transfected HEK293 cells, immunoblot
CRACM1-Myc-His (human) [5] = target: CRACM1-Myc-His (human) (UniProt Q96D31); experiment: reciprocal co-immunoprecipitation from HEK293 cells, anti-tag immunoblot
CRACM1-Myc-His (human) [6] = target: CRACM1-Myc-His (human) (UniProt Q96D31); experiment: co-immunoprecipitation, immunoblot

Question: How did the binding [1] turn out when “CRACM1-Myc-His (from UniProt Q96D31 1-301)” was run?
Answer: binds

Question: And the binding (Flag-CRACM1 (human) [2])?
Answer: binds

Question: “D110/112A-CRACM1-Myc-His (from UniProt Q96D31 1-301)” was tested. Which binding (Flag-CRACM1 (human) [3]) did it give?
Answer: binds

Question: For Flag-CRACM1 (from UniProt Q96D31 1-301), which binding (CRACM1-Myc-His (human) [4]) is on record?
Answer: binds

Question: And the binding (CRACM1-Myc-His (human) [5])?
Answer: binds

Question: “Flag-E106Q-CRACM1 (from UniProt Q96D31 1-301)” was tested. Which binding (CRACM1-Myc-His (human) [6]) did it give?
Answer: binds
